# PubChem BioAssay AID1445 (SRMLSC, 2008)
# By UniProt entry, the sequences of proteins in these tests, tags left out. Where a name states a change or a piece, a line headed by the entry shows the natural chain unless it says otherwise.
# UniProt O96935: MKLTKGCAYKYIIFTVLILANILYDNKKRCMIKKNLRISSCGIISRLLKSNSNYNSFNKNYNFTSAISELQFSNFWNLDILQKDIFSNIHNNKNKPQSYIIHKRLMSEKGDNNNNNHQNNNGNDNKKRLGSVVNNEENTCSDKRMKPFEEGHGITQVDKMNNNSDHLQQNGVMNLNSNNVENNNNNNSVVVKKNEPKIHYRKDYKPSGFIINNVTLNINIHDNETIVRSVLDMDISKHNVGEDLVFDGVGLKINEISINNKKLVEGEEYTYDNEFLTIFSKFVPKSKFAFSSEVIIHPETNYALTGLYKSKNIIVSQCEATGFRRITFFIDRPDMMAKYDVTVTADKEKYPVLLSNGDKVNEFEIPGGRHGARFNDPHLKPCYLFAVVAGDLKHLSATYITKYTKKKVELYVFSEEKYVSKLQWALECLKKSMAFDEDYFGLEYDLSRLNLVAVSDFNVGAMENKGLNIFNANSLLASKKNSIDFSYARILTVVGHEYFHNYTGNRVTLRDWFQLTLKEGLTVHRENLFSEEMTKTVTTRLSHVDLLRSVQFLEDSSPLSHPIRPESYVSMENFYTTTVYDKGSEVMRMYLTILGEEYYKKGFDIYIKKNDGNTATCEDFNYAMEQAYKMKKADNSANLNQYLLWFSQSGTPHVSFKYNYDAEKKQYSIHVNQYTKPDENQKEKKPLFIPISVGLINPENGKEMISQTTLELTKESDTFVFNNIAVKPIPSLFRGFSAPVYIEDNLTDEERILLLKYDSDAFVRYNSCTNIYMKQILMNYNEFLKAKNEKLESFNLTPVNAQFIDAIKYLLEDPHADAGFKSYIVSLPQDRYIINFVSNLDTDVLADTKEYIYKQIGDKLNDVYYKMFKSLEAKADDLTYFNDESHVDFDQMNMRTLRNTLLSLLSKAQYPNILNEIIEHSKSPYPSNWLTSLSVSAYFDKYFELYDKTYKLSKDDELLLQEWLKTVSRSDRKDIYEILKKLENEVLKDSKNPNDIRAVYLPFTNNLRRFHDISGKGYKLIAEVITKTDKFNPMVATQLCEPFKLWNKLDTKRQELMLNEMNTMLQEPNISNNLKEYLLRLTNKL
# Hit rate of the full screen: of about 220,000 compounds, about 910 (0.41%) were called active. Inconclusive results, whose numbers are uncertain, are shown with a selection of clear calls.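 How the source made its calls: active means primary inhibition above the hit cutoff, then over 50% inhibition at one or more dose response concentrations (cut at about 23% in these data, passing the limit was not always enough); inconclusive means conflicting primary data, or primary hits not chosen for dose response; inactive means low primary inhibition, or under 50% at every dose.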
# Molecular target: Aminopeptidase N (Plasmodium falciparum (isolate 3D7)) (UniProt O96935)
# Assay: P. falciparum M1AAP inhibitors, biochemical, fluorogenic H-Leu-NHMec substrate, 1536-well (AID 1445);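 further: plate controls were DMSO full reaction for no effect and no enzyme background for full effect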
# Details: recombinant M1AAP, H-Leu-NHMec fluorogenic kinetic assay; at 30 µM, hits give high values unless noted
row,Structure (SMILES),inhibition
1,NS(=O)(=O)c1ccc(CCNC(=O)CSc2ccc(Cl)cc2)cc1,inactive: 9.38%
2,COc1ccc(NC(=O)c2ccc(-c3ccccc3Cl)o2)cc1,inactive: 2.03%
3,O=C(NCCO)Nc1ccc2nc(-c3ccco3)c(-c3ccco3)nc2c1,inconclusive: 27.3%
4,O=C(Nc1cccc2ccccc12)c1ccc(Br)o1,inconclusive: 24.2%
5,COCc1[nH]nc2c1C(c1ccsc1)C(C#N)=C(N)O2 (stereo not given),inactive: 1.23%
6,NS(=O)(=O)c1ccc(CNC(=O)NC23CC4CC(CC(C4)C2)C3)cc1,inconclusive: 51.4%
7,COC(=O)c1ccc(CSc2nc(C(F)(F)F)c3c(c2C#N)CCC3)o1,inactive: 3.42%
8,CCc1ccc(NC(=O)Cn2cnc3c(=O)n(C)c(=O)n(C)c32)cc1,inconclusive: 24.3%
9,C=CCn1c(CNc2ccccc2)nnc1SCC(=O)N/N=C/c1ccc(O)cc1O,inconclusive: 36%
10,CCOP(=O)(OCC)c1nc(Cc2ccccc2)oc1NCc1ccccc1,inactive: 1.14%
11,CCOc1c(O)ccc(/C=C2\SC(=S)NC2=O)c1[N+](=O)[O-],inconclusive: 24.9%
12,Cc1sc(=NC(=O)c2ccco2)n(C)c1-c1ccccc1,inconclusive: 31.7%
13,Cn1c(SCC(=O)N2CCOCC2)nnc1-c1cccc(NC(=O)c2ccccc2F)c1,active: 25.4%
14,NS(=O)(=O)c1ccc(CCNC(=O)C2CCN(S(=O)(=O)c3ccc(Br)s3)CC2)cc1,inactive: 2.64%
15,COc1ccccc1N(CC(=O)Nc1ccc2c(c1)OCO2)S(=O)(=O)c1ccccc1,inconclusive: 27.9%
16,C=CCC(=O)N1CCCC(CCC(=O)NCc2ccccc2F)C1 (stereo not given),inactive: 9.17%
17,O=C(COc1ccccc1)NCc1nnc2c3ccccc3c(-c3ccccc3)nn12,inconclusive: 24.7%
18,O=C1NC(=O)/C(=C\c2ccc(O)cc2O)S1,inconclusive: 28.2%
19,C/C(=C\c1ccco1)C1C(C#N)=C(N)Oc2n[nH]c(-c3ccc(C)cc3)c21 (stereo not given),inconclusive: 24.3%
20,CC(=O)Nc1ccc(-c2nnc(SCC(=O)Nc3ccc4c(c3)oc3ccccc34)n2C)cc1,inactive: 8.23%
21,Cc1cc(SCC(=O)N/N=C/c2ccc(O)c(O)c2O)c(C)cc1Br,inactive: 39%
22,N#Cc1c(NC(=O)CSc2nnc(-c3ccco3)n2-c2ccccc2)sc2c1CCC2,inconclusive: 8.62%
23,CSc1nc(N(CCO)CCO)c2sc3nc(-c4ccco4)c4c(c3c2n1)CCC4,active: 27.5%
24,COc1cccc(N=Nc2c(=O)[nH]n3c(=O)c4c([nH]c23)CCC4)c1,inconclusive: 23.4%
25,Cc1cccc(OCC(=O)Nc2cccc(-c3nnc(-c4ccccc4)o3)c2)c1C,active: 24%
26,Cc1ccc(C)c2[nH]c(=O)c(C(c3nnnn3Cc3ccco3)N3CCc4ccccc4C3)cc12 (stereo not given),active: 24.6%
27,O=[N+]([O-])c1ccc(Oc2c(F)c(F)nc(N3CCCC3)c2F)cc1,inactive: 1.61%
28,Cc1coc2c1C(=O)C(=O)c1c-2ccc2c(C)cccc12,inconclusive: 25.2%

# As a working copy, part of the list above:
row,Structure (SMILES),inhibition
21,Cc1cc(SCC(=O)N/N=C/c2ccc(O)c(O)c2O)c(C)cc1Br,inactive: 39%
22,N#Cc1c(NC(=O)CSc2nnc(-c3ccco3)n2-c2ccccc2)sc2c1CCC2,inconclusive: 8.62%
23,CSc1nc(N(CCO)CCO)c2sc3nc(-c4ccco4)c4c(c3c2n1)CCC4,active: 27.5%

# Going on with the list.

row,Structure (SMILES),inhibition
1,CCNC(=S)NNC(=O)c1cc(-c2cc(C)ccc2C)nc2ccccc12,inconclusive: 24.6%
2,CCc1ccc(S(=O)(=O)Nc2ccc(-c3nc4cccnc4s3)cc2)s1,active: 27.2%
3,COc1ccccc1-c1ccc(SCC(=O)NCCc2ccccc2)nn1,inactive: 10.8%
4,C=CCOc1ccc(Br)cc1/C=C1/SC(=Nc2ccc(C(=O)O)cc2)NC1=O,inconclusive: 31.8%
5,NC(=S)Nc1nc2ccccc2[nH]c1=O,active: 23.5%
6,Cc1cccc(-n2cc(CN(C)Cc3nccn3C)c(-c3cccc(F)c3)n2)c1,inactive: 4.73%
7,O=C(NCc1ccco1)C1CCN(S(=O)(=O)Cc2ccccc2)CC1,inconclusive: 26.3%
8,Cc1cc(OCc2nn[nH]n2)c2c(C)c(Cc3ccccc3)c(=O)oc2c1,inconclusive: 22.2%
9,NS(=O)(=O)c1ccc(-c2ccc(/C=N/NC(=O)c3ccccc3O)o2)cc1,inactive: 11.7%
10,Cc1ccsc1/C=N/Nc1nc(=O)[nH]nc1C,inconclusive: 26.8%
11,Cc1cc(=O)[nH]c(-c2ccccc2O)n1,inactive: 10.9%
12,CCn1cc(S(=O)(=O)Nc2ccccc2C(F)(F)F)cn1,inactive: -0.46%
13,CCc1nnc(NS(=O)(=O)c2ccc(NC(=S)NC(=O)c3ccccc3)cc2)s1,inactive: 13.4%
14,Cc1cc(=O)oc2cc(NS(=O)(=O)c3ccccc3)ccc12,inconclusive: 25.3%
15,CCn1c(SCC(=O)N/N=C/c2ccccc2OCC(=O)O)nnc1-c1ccc(C(C)(C)C)cc1,inconclusive: 24.2%
16,COc1ccc(NC(=O)C2CCCN(S(=O)(=O)c3cccc4cccnc34)C2)cc1OC (stereo not given),active: 28.4%
17,Cc1ccc(S(=O)(=O)Nc2nc3ccccc3nc2NCc2ccco2)cc1C,active: 25.4%
18,CC(C)c1ccc(S(=O)(=O)/N=C2/C=C(Sc3ncn[nH]3)C(=O)c3ccccc32)cc1,inconclusive: 30.2%
19,COC(=O)c1c(NC(=O)C2C3CCC(C3)C2C(=O)O)sc2c1CCCCC2 (stereo not given),inconclusive: 23.9%
20,O=C1CCCC2=C1C(c1ccc(Br)cc1)c1c([nH]c(=S)[nH]c1=O)N2 (stereo not given),inconclusive: 27.4%
21,N=c1oc2cc(O)ccc2cc1C(=O)Nc1ccccn1,inconclusive: 25.6%
22,Cc1ccc(C(=O)Nc2c(C#N)c(C)c(C)n2Cc2ccccc2)cc1,inconclusive: 23.4%
23,COc1cc2c(cc1O)[C@H](Cc1ccc(Oc3cc(C[C@@H]4NCCc5cc(OC)c(O)cc54)ccc3O)cc1)NCC2,inconclusive: 28.1%
24,O=c1nc(N2CCOCC2)ccn1-c1nc(-c2ccccc2)oc1-c1ccccc1,inconclusive: 35.6%
25,CCOc1cc(/C=C2\N=C(SCC)SC2=O)cc([N+](=O)[O-])c1OC(C)=O,active: 60.6%
26,CC(C)CN(CCOc1cccc(N2C(=O)C3=C(CCCC3)C2=O)c1)CC(C)C,inactive: 3.32%
27,CCOC(=O)N1CCN(C(=O)c2ccc3c(c2)sc2nc(-c4ccc(OC)cc4)cn23)CC1,inconclusive: 25.5%
